Library screen at single concentrations

Chains of the proteins cited; added tags and fusions are not shown. Residues count along the entry.
UniProt P9WPC5, whole entry: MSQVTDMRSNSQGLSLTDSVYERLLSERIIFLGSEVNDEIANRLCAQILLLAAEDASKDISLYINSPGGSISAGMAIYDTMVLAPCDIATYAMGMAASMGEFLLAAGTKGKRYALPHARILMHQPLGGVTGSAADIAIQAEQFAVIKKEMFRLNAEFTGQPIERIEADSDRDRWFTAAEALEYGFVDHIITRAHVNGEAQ
UniProt P9WPC3, whole entry partner: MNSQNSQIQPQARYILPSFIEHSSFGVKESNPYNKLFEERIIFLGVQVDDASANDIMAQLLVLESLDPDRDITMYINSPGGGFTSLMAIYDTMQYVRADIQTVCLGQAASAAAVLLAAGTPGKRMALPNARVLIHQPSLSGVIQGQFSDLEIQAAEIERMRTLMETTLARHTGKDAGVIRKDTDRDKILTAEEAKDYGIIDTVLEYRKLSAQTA
UniProt Q4DA54, 1-478: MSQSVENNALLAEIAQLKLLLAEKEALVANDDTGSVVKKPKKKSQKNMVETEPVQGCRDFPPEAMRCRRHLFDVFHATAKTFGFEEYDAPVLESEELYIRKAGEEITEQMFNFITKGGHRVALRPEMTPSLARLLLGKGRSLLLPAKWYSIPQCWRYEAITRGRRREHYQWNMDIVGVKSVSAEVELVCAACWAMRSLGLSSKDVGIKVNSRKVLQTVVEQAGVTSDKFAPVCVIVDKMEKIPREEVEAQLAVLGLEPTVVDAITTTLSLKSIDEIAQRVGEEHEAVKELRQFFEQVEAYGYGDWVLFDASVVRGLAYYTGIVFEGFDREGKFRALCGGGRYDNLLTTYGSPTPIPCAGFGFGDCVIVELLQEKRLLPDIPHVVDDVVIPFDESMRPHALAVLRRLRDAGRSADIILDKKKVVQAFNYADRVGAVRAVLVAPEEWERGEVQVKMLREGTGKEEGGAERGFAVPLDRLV
UniProt Q8IDJ8, 1-583: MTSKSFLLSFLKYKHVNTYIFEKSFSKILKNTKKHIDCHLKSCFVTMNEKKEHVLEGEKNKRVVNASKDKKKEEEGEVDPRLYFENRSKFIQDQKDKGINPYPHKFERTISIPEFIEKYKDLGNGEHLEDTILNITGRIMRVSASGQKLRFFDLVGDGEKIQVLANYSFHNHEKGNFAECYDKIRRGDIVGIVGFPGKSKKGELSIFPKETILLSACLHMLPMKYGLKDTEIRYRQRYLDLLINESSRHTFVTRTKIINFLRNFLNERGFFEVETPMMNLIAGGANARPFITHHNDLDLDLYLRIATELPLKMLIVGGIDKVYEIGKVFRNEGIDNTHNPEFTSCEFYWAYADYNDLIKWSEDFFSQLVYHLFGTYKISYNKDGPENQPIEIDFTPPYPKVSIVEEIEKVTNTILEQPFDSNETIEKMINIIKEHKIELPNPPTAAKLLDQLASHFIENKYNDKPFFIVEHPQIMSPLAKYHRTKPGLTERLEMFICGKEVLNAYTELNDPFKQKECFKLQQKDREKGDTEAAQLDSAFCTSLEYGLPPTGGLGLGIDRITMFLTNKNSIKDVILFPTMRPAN
UniProt P9WNZ1, whole entry: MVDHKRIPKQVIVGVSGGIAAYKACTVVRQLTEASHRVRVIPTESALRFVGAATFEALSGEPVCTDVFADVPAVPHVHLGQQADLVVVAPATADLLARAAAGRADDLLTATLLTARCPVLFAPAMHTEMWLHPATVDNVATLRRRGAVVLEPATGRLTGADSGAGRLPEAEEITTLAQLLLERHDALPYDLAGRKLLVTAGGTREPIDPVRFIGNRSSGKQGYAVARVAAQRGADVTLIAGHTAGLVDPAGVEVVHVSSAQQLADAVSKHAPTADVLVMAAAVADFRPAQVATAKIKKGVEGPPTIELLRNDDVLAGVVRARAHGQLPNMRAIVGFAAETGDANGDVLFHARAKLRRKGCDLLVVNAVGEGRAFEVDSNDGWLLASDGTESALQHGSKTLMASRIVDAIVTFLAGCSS
UniProt I6X8D2, whole entry: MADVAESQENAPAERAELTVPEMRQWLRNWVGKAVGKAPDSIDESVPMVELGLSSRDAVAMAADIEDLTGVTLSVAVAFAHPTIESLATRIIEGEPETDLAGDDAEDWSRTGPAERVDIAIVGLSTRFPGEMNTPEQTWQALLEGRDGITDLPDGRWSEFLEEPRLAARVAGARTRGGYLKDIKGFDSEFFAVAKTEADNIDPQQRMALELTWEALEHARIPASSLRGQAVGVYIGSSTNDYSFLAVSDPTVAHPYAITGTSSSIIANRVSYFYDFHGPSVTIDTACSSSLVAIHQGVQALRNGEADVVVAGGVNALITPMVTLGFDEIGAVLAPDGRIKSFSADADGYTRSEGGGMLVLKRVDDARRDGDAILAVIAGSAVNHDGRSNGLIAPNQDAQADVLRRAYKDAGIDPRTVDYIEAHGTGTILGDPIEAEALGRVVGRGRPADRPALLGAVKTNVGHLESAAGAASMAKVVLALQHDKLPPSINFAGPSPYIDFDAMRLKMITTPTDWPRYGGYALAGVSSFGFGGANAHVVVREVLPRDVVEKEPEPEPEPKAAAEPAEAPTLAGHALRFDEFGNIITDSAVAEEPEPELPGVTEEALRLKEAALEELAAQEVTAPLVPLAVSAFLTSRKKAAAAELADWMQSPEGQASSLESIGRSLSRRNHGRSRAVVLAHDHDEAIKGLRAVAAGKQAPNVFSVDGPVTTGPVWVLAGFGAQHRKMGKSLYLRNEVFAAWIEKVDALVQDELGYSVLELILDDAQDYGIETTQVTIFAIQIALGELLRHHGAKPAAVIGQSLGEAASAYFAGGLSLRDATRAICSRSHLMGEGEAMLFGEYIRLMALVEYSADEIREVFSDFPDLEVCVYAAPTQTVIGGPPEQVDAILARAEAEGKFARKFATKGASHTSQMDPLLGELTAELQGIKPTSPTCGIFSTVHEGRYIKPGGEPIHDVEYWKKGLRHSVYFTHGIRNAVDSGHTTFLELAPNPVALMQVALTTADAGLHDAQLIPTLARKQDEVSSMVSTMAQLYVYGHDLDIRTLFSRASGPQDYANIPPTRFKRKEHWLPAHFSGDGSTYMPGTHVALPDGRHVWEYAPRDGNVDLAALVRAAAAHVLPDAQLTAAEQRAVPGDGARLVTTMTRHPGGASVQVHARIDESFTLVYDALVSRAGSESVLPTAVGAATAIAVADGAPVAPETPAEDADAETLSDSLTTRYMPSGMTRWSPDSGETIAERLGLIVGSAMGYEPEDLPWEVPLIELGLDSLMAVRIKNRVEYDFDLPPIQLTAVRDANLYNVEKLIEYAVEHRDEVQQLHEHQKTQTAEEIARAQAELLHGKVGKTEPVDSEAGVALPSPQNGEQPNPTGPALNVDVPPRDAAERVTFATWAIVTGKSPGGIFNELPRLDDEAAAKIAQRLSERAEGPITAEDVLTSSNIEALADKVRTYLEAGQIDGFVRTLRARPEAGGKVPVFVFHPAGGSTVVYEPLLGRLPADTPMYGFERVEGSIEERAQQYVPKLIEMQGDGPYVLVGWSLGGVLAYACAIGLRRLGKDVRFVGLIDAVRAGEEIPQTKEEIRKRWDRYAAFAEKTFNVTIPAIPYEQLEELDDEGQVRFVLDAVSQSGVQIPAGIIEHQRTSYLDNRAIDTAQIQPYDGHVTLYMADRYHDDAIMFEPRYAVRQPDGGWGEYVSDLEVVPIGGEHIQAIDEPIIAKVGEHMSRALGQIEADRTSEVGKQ

From ChEMBL document CHEMBL3988442, “University of Dundee, Small-Polar-MMV Screening Library” (2021).

Each number is a percent effect as filed.
The controls that fix the scale are not given in the record; negative values are as filed.
Compounds were drawn at random from those tested, without regard to their results.
Two or more numbers in one place are separate tests of the same structure; such repeats can differ widely.

ClpP1P2: 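ClpP1P2, Mycobacterium tuberculosis (UniProt P9WPC5 and UniProt P9WPC3). Protease assay of ClpP1P2, read by the AMC dye that it sets free. Compounds at 50 µM. Higher reads as stronger inhibition, judged from the few compounds that gave an IC50. Most other retested compounds had strongly negative values. About 69,000 compounds were tested under these conditions; 0.015% (about 10) showed 50% or more at least once.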
TcHisRS: 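Enzyme assay of histidyl-tRNA synthetase; the read-out is not stated. Target: Histidine-tRNA ligase, Trypanosoma cruzi CL Brener (UniProt Q4DA54). Concentration: 30 µM. Higher reads as stronger inhibition (inferred: compounds with an IC50 in retests scored well above the rest). Of about 69,000 compounds tested this way, about 31 (0.045%) reached 50% or more in at least one test.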
PfKRS1: 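Lysine-tRNA ligase, Plasmodium falciparum 3D7 (UniProt Q8IDJ8). Enzyme assay of the cytosolic lysyl-tRNA synthetase in 384-well plates, read by luminescence. Compounds at 30 µM. Higher reads as stronger inhibition, judged from the few compounds that gave an IC50. Size under these conditions: about 69,000 compounds, about 49 of them at 50% or above in at least one test.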
CoaBC: 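Coenzyme A biosynthesis protein CoaBC, Mycobacterium tuberculosis (UniProt P9WNZ1). Enzyme assay of CoaBC with a phosphate dye (Biomol Green) read at 650 nm. Tested at 30 µM. Higher reads as stronger inhibition, judged from the few compounds that gave an IC50. Most strong results did not repeat in a second test. Of about 67,000 compounds tested this way, about 40 (0.06%) reached 50% or more in at least one test.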
Leishmania in macrophages: 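Cell assay of Leishmania donovani living inside macrophages; the read-out is not stated. Concentration: 30 µM. The record gives no direction; compounds that gave an IC50 in retests scored well above the rest, so higher reads as stronger inhibition. Of about 69,000 compounds tested this way, about 1,000 (1.5%) reached 50% or more in at least one test.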
Pks13 thioesterase: 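Polyketide synthase Pks13, Mycobacterium tuberculosis (UniProt I6X8D2). Enzyme assay of the thioesterase domain of polyketide synthase 13; the read-out is not stated. Tested at 30 µM. Higher reads as stronger inhibition (inferred from which compounds were picked for retests). About 67,000 compounds were tested under these conditions; 0.46% (about 300) showed 50% or more at least once.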

COCCCN1CCCCC12CC(=O)N(Cc1ccccn1)C2 (stereo not drawn) gave ClpP1P2: -3.684%; TcHisRS: 4.301%; PfKRS1: 0.5333%; CoaBC: 0.6342%; Leishmania in macrophages: -3.949% & 7.802%; Pks13 thioesterase: -35.61%. With CCNc1cc2c(nn1)CCN(C(=O)c1nccnc1N)C2 the screen gave ClpP1P2: -59.47%; TcHisRS: 8.284%; PfKRS1: -0.2301%; CoaBC: 2.155%; Leishmania in macrophages: 11.24%; Pks13 thioesterase: -1.386%. Cc1ccc(CC(=O)N2CCN(c3nccs3)CC2)s1 gave ClpP1P2: -22.9%; TcHisRS: -0.2907%; PfKRS1: -3.042%; CoaBC: -9.895%; Leishmania in macrophages: -42.17%; Pks13 thioesterase: -5.306%. For CCn1cnnc1C1CCN(C(=O)c2cc3c(s2)CCC3)CC1 the result was ClpP1P2: 15.7%; TcHisRS: 2.256%; PfKRS1: 11.91%; CoaBC: -0.2571%; Leishmania in macrophages: 13.41%; Pks13 thioesterase: -24.3%.

Cc1c(C(=O)O)nnn1Cc1cccc(C(F)(F)F)c1 read ClpP1P2: 17.93%; TcHisRS: 4.545%; PfKRS1: 5.23%; CoaBC: 4.069%; Leishmania in macrophages: -9.543%; Pks13 thioesterase: 0.4011%. CC(=O)c1cccc(NC(=O)CN2CCCCC2C(=O)N2CCCC2)c1 (stereo not drawn) gave ClpP1P2: 9.059%; TcHisRS: 3.448%; PfKRS1: 1.849%; CoaBC: -5.952%; Leishmania in macrophages: 26.09%; Pks13 thioesterase: -3.631%. Result for Cc1cccc(CN2C[C@@H]3OCCN(c4cnccn4)[C@@H]3C2)n1 was ClpP1P2: 14.51%; TcHisRS: 5.747%; PfKRS1: 0.6845%; CoaBC: 10.79%; Pks13 thioesterase: -4.221%. COC(=O)CCN(C)C(=O)c1ccc(-c2cscn2)cc1 read ClpP1P2: 17.93%; TcHisRS: 2.273%; PfKRS1: -0.4754%; CoaBC: -0.2141%; Leishmania in macrophages: 2.934%.

Cc1nc(CN2CCN(c3nc4c(s3)c(C)nn4C)CC2)cs1 read ClpP1P2: -1.067%; TcHisRS: 8.458%; PfKRS1: 0.4424%; CoaBC: 2.469%; Leishmania in macrophages: 48.11%; Pks13 thioesterase: -16.6%. Result for Nc1nnc(CCCNC(=O)c2ccc(C3CCCNC3)cc2)s1 (stereo not drawn) was ClpP1P2: -0.8616%; TcHisRS: -0.5525%; PfKRS1: 0.9628%; CoaBC: 3.125%; Leishmania in macrophages: 51.22%; Pks13 thioesterase: -8.565%. Result for CC1CCC(NC(=O)c2nn(C)cc2Br)CC1 (stereo not drawn) was ClpP1P2: -3.613%; TcHisRS: 4.386%; PfKRS1: 2.004%; CoaBC: 1.734%; Leishmania in macrophages: 5.92%; Pks13 thioesterase: -17.83%. CS(=O)(=O)c1cccc(OCC(=O)N2CCCC2c2ccc[nH]2)c1 (stereo not drawn) gave ClpP1P2: -2.933%; TcHisRS: 0.4808%; PfKRS1: 2.603%; CoaBC: 0.1272%; Leishmania in macrophages: 6.777%; Pks13 thioesterase: 1.422%.

Nc1ccnc(N2CCC(Cc3ccccc3Cl)(C(=O)O)CC2)n1 gave ClpP1P2: -0.7843%; TcHisRS: 9.278%; PfKRS1: -1.652%; CoaBC: 1.538%; Leishmania in macrophages: 7.804%; Pks13 thioesterase: -3.253%. For c1ncc(Nc2nccc(C3CCCCN3CC3CCCCC3)n2)cn1 (stereo not drawn) the result was ClpP1P2: 10.83%; TcHisRS: 7.104%; PfKRS1: -1.418%; CoaBC: 7.772%; Leishmania in macrophages: 16.66%; Pks13 thioesterase: -15.57%. Result for Cc1cccc(C(C(=O)NCc2cc(C)[nH]n2)N(C)C)c1 (stereo not drawn) was ClpP1P2: -12.63%; TcHisRS: 6.438%; PfKRS1: 1.421%; CoaBC: -7.536%; Leishmania in macrophages: 27.13%; Pks13 thioesterase: 0.1867%. For O=C1[C@H]2CC[C@H](CN(Cc3ccccc3OC(F)F)C2)N1CC1CC1 the result was ClpP1P2: -13.54%; TcHisRS: 3.333%; PfKRS1: -2.983%; CoaBC: 3.625%; Pks13 thioesterase: -53.07%.

With Cn1ccnc1-c1cccc(NC(=O)NCCCO)c1 the screen gave ClpP1P2: -2.912%; TcHisRS: 1.626%; PfKRS1: 8.079%; CoaBC: 4.219%; Leishmania in macrophages: -3.903%; Pks13 thioesterase: -13.14%.

The first 2 entries again:

{"compound": "COCCCN1CCCCC12CC(=O)N(Cc1ccccn1)C2", "stereo": "stereo not drawn", "ClpP1P2": -3.684, "TcHisRS": 4.301, "PfKRS1": 0.5333, "CoaBC": 0.6342, "Leishmania in macrophages": "-3.949 & 7.802", "Pks13 thioesterase": -35.61}
{"compound": "CCNc1cc2c(nn1)CCN(C(=O)c1nccnc1N)C2", "ClpP1P2": -59.47, "TcHisRS": 8.284, "PfKRS1": -0.2301, "CoaBC": 2.155, "Leishmania in macrophages": 11.24, "Pks13 thioesterase": -1.386}